Assay results reported in the supplement of paper PMC12889115.
The other results are listed elsewhere or left out. Values are raw readings; no control value is given beside them.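 First-pass screen: polymyxin B was added at a level that permeabilizes the Salmonella outer membrane while sparing the inner membrane. DMSO wells, with and without polymyxin B, defined maximum growth. Because plates differed from one another, each plate's data were ranked separately and the compounds with the lowest OD600 were carried forward as hits.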

Tested on: Salmonella enterica serovar Typhimurium SL1344
Test: bacterial growth OD600 after 18 h with compound and polymyxin B; higher = more bacterial growth (less inhibition)
Details: 50 µM, Mueller-Hinton broth

| Compound | bacterial growth OD600 (polymyxin B 0.75 µg/mL) | bacterial growth OD600 (polymyxin B 1 µg/mL) |
| --- | --- | --- |
| COCc1noc(-c2ccc(N(C)CCn3ccnc3C)nc2)n1 | 0.855 | – |
| CCCc1cc(CN(C)C(=O)Cn2nnnc2CN2CCC(C)CC2)n[nH]1 | 0.79 | – |
| O=C(Cn1cccn1)N1CCC(n2c(-c3ccc4c(c3)OCO4)nc3cc(C(F)(F)F)ccc32)CC1 | 0.819 | – |
| COc1ccc(CCC2CCCN(C(=O)c3ccoc3)C2)cc1 (stereo unspecified) | 0.588 | – |
| Cc1ccccc1CC(C1CCN(C(=O)CCCc2ccccc2)CC1)N(C)C(=O)Cn1cccn1 (stereo unspecified) | 0.846 | – |
| CCOC(=O)C1(Cc2ccccc2F)CCCN(C(=O)CC(C)C)C1 (stereo unspecified) | – | 0.644 |
| CC(=O)c1cccc(CN2CCCC(CNC(=O)c3cccs3)C2)c1 (stereo unspecified) | – | 0.885 |
| Cc1ccc(CN(C)C(=O)C2(N3C[C@@H](C)O[C@@H](C)C3)Cc3ccccc3C2)o1 | – | 1.08 |
| O=C(Cc1ccncc1)N1CCC(C2CCN(c3ncccn3)CC2)C1 (stereo unspecified) | 0.966 | – |
| CC(=O)N[C@@H]1c2ccccc2C2(CCN(C(=O)c3ccc4cc[nH]c4c3)CC2)[C@H]1OCc1ccccc1 | 0.528 | – |
| COc1ccc(CNC(=O)CCC2(Cc3ccc(Cl)cc3)CCC(=O)N2)cc1 (stereo unspecified) | 1 | – |
| COc1cccc(-c2cnc(C(F)(F)F)nc2C2CCN(C(=O)CCn3ccc(C)n3)CC2)c1 | 0.74 | – |
| CC(=O)c1cc(CN2CCCC(C(=O)Nc3ccc(-c4cscn4)cc3)C2)cs1 (stereo unspecified) | – | 0.876 |
| CC(Cn1cccn1)C(=O)N1CCc2[nH]nc(-c3ccc4c(c3)OCO4)c2C1 (stereo unspecified) | 0.943 | – |
| NC(=O)[C@@H]1CCCN1C(=O)CC1(c2ccccc2)CC(=O)N(CCCOc2cccnc2)C1=O (stereo partly specified) | 0.806 | – |
| CSCC(=O)N1CCCC(C(=O)Nc2cccc(-c3cccc(C)c3)c2)C1 (stereo unspecified) | – | 0.016 |

Record cards (already shown).
`O=C(Cn1cccn1)N1CCC(n2c(-c3ccc4c(c3)OCO4)nc3cc(C(F)(F)F)ccc32)CC1` is listed with bacterial growth OD600 (polymyxin B 0.75 µg/mL): 0.819
`CC(=O)c1cc(CN2CCCC(C(=O)Nc3ccc(-c4cscn4)cc3)C2)cs1` (stereo unspecified) is listed with bacterial growth OD600 (polymyxin B 1 µg/mL): 0.876

More compounds

| Compound | bacterial growth OD600 (polymyxin B 0.75 µg/mL) | bacterial growth OD600 (polymyxin B 1 µg/mL) |
| --- | --- | --- |
| COc1ccc(C(=O)N2CCCC2)c(OC2CCN(CC=C(C)C)CC2)c1 | 0.8 | – |
| CC1(C)Cc2nc(N3CCOCC3)ncc2C(NC(=O)Nc2ccccc2)C1 (stereo unspecified) | 0.857 | – |
| Cc1cccc(C2c3[nH]c4ccccc4c3CCN2CCCn2cccn2)n1 (stereo unspecified) | 0.833 | – |
| O=C(CC(c1ccccc1)c1cccc(Cl)c1)NCCN1CCOC1=O (stereo unspecified) | – | 0.949 |
| CC1CN(CCC(=O)N2CCC(N3C[C@@H](C)O[C@@H](C)C3)CC2)Cc2cc(Cl)ccc2O1 (stereo partly specified) | 0.83 | – |
| CCC(=O)N1CCCC(CCc2ccc(F)c(F)c2)C1 (stereo unspecified) | 0.561 | – |
| CC(=O)c1ccc(C(=O)N2CCOc3ccc(C(C)(O)CN(C)C)cc3C2)cc1 (stereo unspecified) | 1.01 | – |
| COCCC(=O)Nc1cc(C(=O)N2CCCCC2c2cccnc2)cc2nc(-c3ccccc3)n(C)c12 (stereo unspecified) | 0.803 | – |
| CC(C)N(Cc1nccn1C)C(=O)Cn1nnnc1CN1C[C@@H](C)O[C@@H](C)C1 | 0.837 | – |
| CCCCN(C)C(=O)c1nc2ccccn2c1CNCc1c(OC)ccc2ccccc12 | – | 0.004 |
| Cc1ccc(C)c(-n2cc(CN3CCCC(C(N)=O)C3)c(-c3ccccc3)n2)c1 (stereo unspecified) | – | 0.731 |
| COCCN1C(=O)CC(CC(=O)N(C)CCC23CC4CC(CC(C4)C2)C3)(c2ccccc2OC)C1=O (stereo unspecified) | 0.004 | – |
| Cc1cc(C(=O)NC2CC(=O)N(Cc3ccccc3C(F)(F)F)C2)nn1C (stereo unspecified) | – | 0.774 |
| Cc1c[nH]c(C(=O)N2CCC3(CCCN(Cc4ccc(F)c(F)c4)C3=O)C2)n1 (stereo unspecified) | – | 0.911 |
| CSCCC(=O)N1CCC(C2CCN(Cc3cccc(F)c3F)CC2)C1 (stereo unspecified) | 0.853 | – |
